Measured values as given in article PMC12501282.
No constants are given. Whether binding was seen depends on the method and setting. In cells and extracts the contact can be indirect. Some results given as binding are weak or reduced against the parent protein; the word gives no strength.

Biological target: T1, STAT1 (mouse (endogenous in primary cardiac fibroblasts)) (UniProt P42225)
T1 sequence: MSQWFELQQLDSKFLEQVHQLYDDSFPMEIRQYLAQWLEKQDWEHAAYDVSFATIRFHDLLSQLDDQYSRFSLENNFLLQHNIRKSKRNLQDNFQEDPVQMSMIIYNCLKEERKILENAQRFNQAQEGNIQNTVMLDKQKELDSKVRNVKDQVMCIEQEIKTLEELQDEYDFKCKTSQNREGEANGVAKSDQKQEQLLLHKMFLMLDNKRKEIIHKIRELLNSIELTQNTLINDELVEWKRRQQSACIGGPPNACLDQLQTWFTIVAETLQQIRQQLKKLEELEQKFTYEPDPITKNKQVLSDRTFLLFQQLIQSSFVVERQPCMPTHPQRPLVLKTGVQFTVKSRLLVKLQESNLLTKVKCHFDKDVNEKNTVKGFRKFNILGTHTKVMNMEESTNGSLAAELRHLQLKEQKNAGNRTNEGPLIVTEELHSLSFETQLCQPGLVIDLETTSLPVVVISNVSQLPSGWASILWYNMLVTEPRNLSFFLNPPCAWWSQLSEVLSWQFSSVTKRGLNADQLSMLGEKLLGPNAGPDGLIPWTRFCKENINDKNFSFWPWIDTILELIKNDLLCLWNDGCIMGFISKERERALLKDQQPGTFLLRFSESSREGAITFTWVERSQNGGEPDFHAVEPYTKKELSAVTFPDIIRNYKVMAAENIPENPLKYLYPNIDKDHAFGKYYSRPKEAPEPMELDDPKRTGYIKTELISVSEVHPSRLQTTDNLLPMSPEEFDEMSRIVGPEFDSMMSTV
Experiment: co-IP; primary cardiac fibroblasts isolated from WT and CARMA3 KO mice heart, TGF-β1 stimulation; which protein was precipitated is not told

binding: binds
B1: Caspase recruitment domain and membrane-associated guanylate kinase-like protein 3 (CARMA3) (protein, UniProt P58660 1-1021)
chain: MQGRADAGEADEEAGAGSGSEAEEDALWERIEGVRHRLTRALNPAKLTPYLRQCRVLDEQDEEEVLSTYRFPCRANRTGRLIDILRCRGKRGFEAFLEALEFYYPEHFTLLTGQEPAQRCSMILDEEGPEGLTQFLMTEVRRLREARKSQLHREQQLQARGRALEEERAGLEQRLREQQQAQERCQRLREDWEAGSLELLRLKDENYMIAMRLAQLSEEKNSAVLRSRDLQLAVDQLKLKVSRLEEECALLRRARGPPPGAEEKEREPDGADLLSELRAENQRLTASLQELQEGLQQEMSRPGAAGSERILLDILEHDWREAQDSRQELCQKLHAVQGELQWAEELRDKYLQEMEDLRLKHRTLLKDCDLYKHRMATVLAQLEEIEKERDQAIQSRDRIQLQYSQSLIEKDQYRKQVRGLEAERDELLTTVTSLEGTKAMLEAQLQRTQGGSCLKACASSHSLCSNLSSTWSLSEFPSPLGGPEATGEAGGSEPHTSEEATDSEKEINRLSILPFPPSAGSILRRQREEDPEPPKRSFSSMSDITGSVTLKPWSPGLSSSSSSDSVWPLGKPEGLLARGCGLDFLNRSLAIRVSGWSPPAGLDPQDKSPDSMPGLGDRWSGAVVRRVLSGPGSARTEQKEPRAEGTGLEGAGLEAEAQQRTLPWNQSSTLPFLLDSKACHSFHEALDAWAKGPGAEPFYIRANFSLPERSDPHALCVKAQEILRLVDPAHKRRQEWFCTRVDTLTLRDLDRGTVPNYQRAQQLLEVQEKYLISSRHRSPRSNLKKRALGLVRPKPAGGTAGDSAEQLPAEPCSELERSLKPYSLVRPLLVSALRPVVLLPECLAPRLIRNLLDLPSSRLDFQVCPAESLSGEEQCTSSAPGAPKAWPATAGLGSRIRAIQESVGKKHCLLELGARGVRELVHSEVYPIVIHVEVTEKNVREIRGLLGRPGWRDSELLRQCRGSEQWLWGLPCSWVQVPAHAWGHAEELAKVVRGRILQEQARLVWVERGSSRGGSGSSSEA
